Measurements reported in patent US20070141276A1, “Novel 14 and 15 membered ring compounds” (priority 2003, published 2007).
Some results were stated once for a whole list of compounds, not compound by compound.

What was measured:
Assay in all cases: MIC, broth dilution method in microtitre
[1] = system: S. aureus Smith ATCC 13709; format: cell-based, Staphylococcus aureus
Experimental: (§1) Using a standard broth dilution method in microtitre, compounds were tested for antibacterial activity. The compounds in the above examples gave minimum inhibitory concentrations (MICs) less than 1 microgram per millilitre against erythromycin-sensitive and erythromycin-resistant strains of Streptococcus pneumoniae and Streptococcus pyogenes.
(§2) In addiffon, the MIC (μg/mL) of test compounds against various organisms was determined including:
(§3) S. aureus Smith ATCC 13709, S. pneumonlae SP030, S. pyogenes 3565, E. faecalis ATCC 29212, H. influenzae ATCC 49247, M. catarrhalis ATCC 23246.

S. pneumoniae SP030 = format: cell-based, Streptococcus pneumoniae
Experimental: as §1, §2, §3

S. pyogenes 3565 = format: cell-based, Streptococcus pyogenes
Experimental: as §1, §2, §3

E. faecalis ATCC 29212 = format: cell-based, Enterococcus faecalis
Experimental: as §1, §2, §3

[2] = system: erythromycin-resistant strains of Streptococcus pneumoniae; format: cell-based
Experimental: as §1

[3] = system: erythromycin-resistant strains of Streptococcus pyogenes; format: cell-based
Experimental: as §1

“4″-O-3-[2-(3-Carboxy-7-chloro-1-cyclopropyl-4-oxo-1,4-dihydro-quinolin-6-yloxy)-ethoxy]-propylcarbamoyl}-azithromycin (A) and 4″-O-{3-[2-(3-Carboxy-1-cyclopropyl-4-oxo-1,4-dihydro-quinolin-6-yloxy)-ethoxy]-propylcarbamoyl)-azithromycin (B) [Example 1]” showed an MIC [1] of no more than 1 µg/mL, an MIC (S. pneumoniae SP030) of no more than 1 µg/mL and an MIC (S. pyogenes 3565) of no more than 1 µg/mL. The MIC (E. faecalis ATCC 29212) was no more than 1 µg/mL, the MIC [2] was no more than 0.25 µg/mL and the MIC [3] was no more than 0.25 µg/mL.
